Measurements taken from patent publication US12454527B2 (priority 2019, dated 2025).

Assay: peptide synthesis
Details: conjugation step

Substance: (3S,7S,25S,28S)-25-benzyl-33-(4-(4-(((R)-1-(((S)-1-((4-((5S,8S,11S,12R)-11-((S)-sec-butyl)-12-(2-((S)-2-((1R,2R)-3-(((1S,2R)-1-hydroxi-1-phenylpropan-2-yl)amino)-1-methoxi-2-methyl-3-oxopropyl) pyrrolidine-1-yl)-oxoethyl)-5,8-diisopropyl-4,10-dimethyl-3,6,9-trioxo-2,13-dioxo-4,7,10-triazatetradecyl)phenyl)amino)-1-oxo-5-ureidopentan-2-yl)amino)-3-methyl-1-oxobutan-2-yl)amino)-4-oxobutyl)-1H-1,2,3-triazol-1-yl)-12-(3-chlorbenzyl)-28-(4-hydroxybenzyl)-5,13,20,23,26,29-hexaoxo-4,6,12,19,24,27,30-heptaazatritracontan-1,3,7-tricarboxylic acid
- conjugation yield: 78%
